The experiment can be described thus: qHTS Assay for Lipid Storage Modulators in Drosophila S3 Cells.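 As to cell number change: cells counted by Cell Tracker Red CMTPX staining in the red channel.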 The note with it: BODIPY lipid droplet fluorescence, 18-24 h; for cell number change: measured here: cell count max response, cells fed with added oleic acid. The essentials: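 Drosophila S3 cells got compounds at several concentrations plus oleic acid (400 uM solution). Laser-scanning cytometry with 488 nm excitation read lipid droplets at 500-530 nm and cells at 575-640 nm. Percent activity was relative to 20 uM Triacsin C.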
A general note: qHTS replaces the single test concentration by a dilution series.

[1] abbreviates: measured here: lipid fluorescence (Fed channel) AC50, cells fed with added oleic acid.
Setting [2] is: measured here: cell number channel AC50, cells fed with added oleic acid.

The values below come from PubChem BioAssay AID2685 (National Center for Advancing Translational Sciences (NCATS), 2010).

The list shows a part of the results. Shown are side measurements of this screen, not its main read-out; they come without a call. The list favours compounds with an active or inconclusive main result. Words in brackets tell the shape of the fitted curve; partial curves, single points and poor fits give uncertain potencies.

Take `O=c1nc(-c2ccccc2Cl)c2cc(F)ccc2[nH]1`: the cell number change is 6.74%.
Broadly, the AC50 is the concentration giving half of the maximal activity seen. The low end stands for activity at low concentration, the high end for activity only at high concentration. Turning to `COc1ccc(CN(C(=O)c2ccccc2Br)C2CCS(=O)(=O)C2)cc1` (centres undefined), the cell number change stood at 13.3%. The concentration at half-maximal activity (AC50) under setting [1] is 0.00411 µM [rising, full curve, poor fit].
Regarding `Cc1cc(C)c(C)c(OCCOCCN2CCN(C)CC2)c1`, the cell number change is -6.43%. Also, under setting [1], the concentration at half-maximal activity (AC50) is 29.1 µM [falling, single point].
For `CNC(=O)c1c(NC(=O)c2cccc(C)c2)sc2c1CCC2`, the half-maximal activity concentration (AC50) under setting [1] was 6.51 µM [falling, single point].
Turning to `O=C1NC(Cc2c[nH]c3ccccc23)C(=O)N1Cc1cccc2ccccc12` (centres undefined), the cell number change is 15.6%. Further, under setting [1], the AC50 is 0.00461 µM [rising, full curve, poor fit].
Turning to `Cc1ccc(NC(=O)CSc2nncs2)cc1Cl`, the cell number change amounted to 3.29%. For the same compound, under setting [1], the AC50 was 0.517 µM [falling, full curve].
As to `CC1(C)CC(CC(=O)O)(c2ccc(Cl)cc2)CCO1` (centres undefined), the half-maximal activity concentration (AC50) under setting [1] is 4.11 µM [falling, partial curve].
Take `CCCc1cc(C(=O)Nc2ccc(CC)cc2)no1`: the cell number change is -8.33%.
On to `COc1ccc(Cl)cc1NC(=S)Nc1cccc(C)c1`, for which the cell number change is 98.5%. Further, the AC50 under setting [2] was 6.51 µM [falling, single point]. The AC50 under setting [1] was 4.11 µM [falling, single point].
As to `Cc1c(NS(=O)(=O)c2ccc(Cl)c(C(=O)OC(C)C(=O)NCc3ccco3)c2)c(=O)n(-c2ccccc2)n1C` (centres undefined), the cell number change is -16.1%.
`CCOc1ccc([C@@H]2CC=C(C(=O)O)[C@H](c3ccc(Cl)cc3)N2S(=O)(=O)c2ccc(C)cc2)cc1`: the cell number change is -16%. Also, the AC50 under setting [1] was 29.1 µM [rising, single point].
On to `N/C(=N\OC(=O)c1cccs1)c1cccnc1`, for which the cell number change is 10.9%. Also, under setting [1], the AC50 was 0.326 µM [falling, full curve, poor fit].
In the case of `Cc1cc(C)n(C(=O)c2cc3sccc3[nH]2)n1`, the cell number change is -20.9%. Under setting [1], the half-maximal activity concentration (AC50) is 6.51 µM [rising, single point].
With `Cc1ccc(C)c(C(=O)Nc2cc(C)nn2-c2nc(C)cc(C)n2)c1`, the cell number change is 34.8%. In addition, the concentration at half-maximal activity (AC50) under setting [2] is 29.1 µM [rising, single point].
For `N#Cc1cccc(-n2c(-c3ccccc3)nnc2-c2ccccc2)c1C#N`, the AC50 under setting [2] was 0.164 µM [rising, full curve, poor fit].
In the case of `CCN(CC)c1ccc(C(=O)NC(=S)Nc2cc(S(=O)(=O)N3CCOCC3)ccc2-n2cncn2)cc1`, the cell number change is -44.1%. Under setting [2], the concentration at half-maximal activity (AC50) is 0.00411 µM [falling, full curve, poor fit].
For `Cc1nn(C(=O)CN2C(=O)c3ccccc3C2=O)c(C)c1Br`, the cell number change is 11.2%. Also, the AC50 under setting [1] is 25.9 µM [rising, single point].
Take `Cc1ccc(C2C3=C(Nc4[nH]n(-c5ccccc5)c(=O)c42)c2ccccc2C3=O)cc1` (centres undefined): the cell number change is 6.84%.
Same read-out and setting: the figure for `Cc1ccc(Cl)cc1NC(=O)COc1ccccc1` is 12.7%.
In the case of `CCCc1ccc(C(=O)N2CCN(c3ccccc3OCC)CC2)cc1`, the cell number change is 66.2%.
Turning to `COc1ccc(C(Nc2cc(C)ccn2)c2ccc3ccc(C)nc3c2O)cc1` (centres undefined), the AC50 under setting [1] was 29.1 µM [falling, single point].
As for `CC(=O)Nc1ccccc1C(=O)C(=O)Nc1ccc(Cl)cc1`, the cell number change amounted to 43.2%. For the same compound, under setting [1], the concentration at half-maximal activity (AC50) was 29.1 µM [rising, single point].
Regarding `Nc1ccc(-c2nnn(CC(=O)N3CCCCC3)n2)cc1`, the cell number change came to 9.38%. For the same compound, the concentration at half-maximal activity (AC50) under setting [1] is 18.4 µM [rising, single point].
For `Cc1ccc(NC(=O)C(=O)NCC2CCCO2)cc1C` (centres undefined), the cell number change came to 4.78%. Besides, under setting [1], the AC50 is 4.61 µM [falling, single point].
Consider `O=c1cc(CN2CCN(Cc3ccccc3)CC2)c2ccc(O)cc2o1`, for which the cell number change turned out to be 35.9%. Further, the concentration at half-maximal activity (AC50) under setting [2] was 25.9 µM [rising, partial curve]. Besides, under setting [1], the AC50 was 29.1 µM [falling, single point].
As for `COC(=O)Cc1ccc2c3ccccc3n(C)c2c1`, the cell number change was -1.6%. Besides, under setting [1], the AC50 was 0.116 µM [falling, full curve, poor fit].
In the case of `CCn1nc(C)cc1C(=O)NC1CC(C)(C)Cc2c1cnn2-c1cccc(F)c1` (centres undefined), under setting [1], the AC50 is 29.1 µM [falling, single point].
As to `O=Cc1cn(CCC(=O)O)nc1-c1cccc(Br)c1`, the cell number change was -40.4%. Further, the AC50 under setting [2] was 29.1 µM [falling, single point].
Consider `COC(=O)C1=C(C)N(Cc2ccccc2)C(=NCC2CC2)N[C@H]1c1ccccc1`, for which the cell number change is -15.8%.
Same read-out and setting: the figure for `CC(=O)N1CCN(S(=O)(=O)c2cccc(C(=O)Nc3ccc(C)cn3)c2)CC1` is -27.7%.
On to `COC(=O)c1sc(S(=O)(=O)NC(Cc2ccccc2)C(=O)O)c(C(=O)OC)c1C` (centres undefined), for which the cell number change turned out to be 6.7%. Also, the concentration at half-maximal activity (AC50) under setting [2] was 1.84 µM [falling, partial curve, poor fit]. Besides, the AC50 under setting [1] was 1.03 µM [falling, full curve, poor fit].
For `Cc1cc(NC(=O)C2CCCC2)nc2c1c(=O)oc1ccccc12`, the cell number change came out at 22.7%. The half-maximal activity concentration (AC50) under setting [1] is 0.366 µM [rising, partial curve, poor fit].
For `Cc1ccc(CN2CC(C(=O)Nc3ccc4c(C)cc(=O)oc4c3)CC2=O)cc1` (centres undefined), the cell number change was determined as 49.1%. In addition, the half-maximal activity concentration (AC50) under setting [2] is 0.461 µM [rising, single point]. In addition, the AC50 under setting [1] is 0.58 µM [rising, single point].
On to `COCc1cc(C)nc2oc(C(=O)c3ccccc3)c(N)c12`, for which the cell number change worked out at 14.2%. Further, the AC50 under setting [1] is 25.9 µM [falling, partial curve].
As to `c1ccc(-c2noc(CN3CCN(c4ccccc4)CC3)n2)cc1`, the cell number change was 17%. Besides, under setting [1], the AC50 was 14.6 µM [rising, single point].
As for `COC(=O)c1ccc(NC(=O)COC(=O)C2CCC2)cc1`, the cell number change came out at 22.9%.
Turning to `Cc1nc2ccccc2n1/N=C/c1cccnc1`, the cell number change was determined as 122%. For the same compound, the concentration at half-maximal activity (AC50) under setting [2] is 2.31 µM [rising, partial curve]. The AC50 under setting [1] is 0.461 µM [rising, full curve, poor fit].
As to `COc1ccc(CNC(=O)Cn2c(=O)oc3cc(S(=O)(=O)N4CCCC4)ccc32)cc1`, the cell number change is -26.9%. The concentration at half-maximal activity (AC50) under setting [1] is 29.1 µM [falling, single point].
As to `O=C(CSc1ccc2ccccc2c1)Nc1ccc(S(=O)(=O)Nc2nccs2)cc1`, the AC50 reads like this: under setting [2], 6.51 µM [rising, single point]; under setting [1], 20.6 µM [rising, partial curve].
On to `CC(=O)c1cnc2cc(-c3cccc(Br)c3)nn2c1C`, for which the cell number change was found to be 28.4%. In addition, the half-maximal activity concentration (AC50) under setting [1] was 29.1 µM [rising, single point].
For the compound `Cc1ccccc1N=C1SC(CC(=O)Nc2ccc3ccccc3c2)C(=O)N1Cc1ccccn1` (centres undefined), the cell number change was -22.7%.
`CCc1cccc(CC)c1NC(=O)COc1ccccc1C(=O)c1cc(C#N)c(=O)n(C2CCCCC2)c1`: the cell number change stood at 13.2%.
Turning to `O=C(O)c1cc(Cl)c2ccccc2c1O`, the cell number change was -9.84%. Moreover, the half-maximal activity concentration (AC50) under setting [1] was 0.731 µM [falling, single point].
Take `O=C(COc1ccc2c3c(c(=O)oc2c1)CCCC3)NCC(O)c1ccccc1` (centres undefined): the cell number change was -4.56%.
`CCOC(=O)C1=C(O)/C(=C/c2ccc(CNC(=O)C(=O)Nc3ccc(C)cc3)o2)N=C1C`: the half-maximal activity concentration (AC50) runs as follows: under setting [2], 0.82 µM [rising, single point]; under setting [1], 0.651 µM [rising, single point].
In the case of `Cc1cc(C)c2c(c1)/C(=N/Nc1ccc(S(N)(=O)=O)cc1[N+](=O)[O-])CCC2`, the cell number change is -24.2%. Under setting [2], the AC50 is 1.84 µM [falling, partial curve, poor fit].
As for `COc1cc(NC(=O)c2cc(-n3cnnc3)ccc2Cl)cc(OC)c1`, the cell number change stood at 14.8%. Further, under setting [1], the AC50 is 0.0461 µM [falling, full curve, poor fit].
On to `Cc1ccc2nc(SCc3ccc([N+](=O)[O-])cc3)[nH]c2c1`, for which the cell number change came to 0.394%. Moreover, the AC50 under setting [1] is 0.0058 µM [rising, full curve, poor fit].
`O=C(CSc1c2c(nc3cc(Cl)ccc13)CCCC2)NCc1ccco1`: the cell number change amounted to 40.6%. Moreover, the AC50 under setting [2] was 0.092 µM [rising, full curve]. In addition, under setting [1], the AC50 was 11.6 µM [rising, partial curve, poor fit].
As for `CC(C)CNC(=O)C1CCCN1S(=O)(=O)c1ccc(Cl)cc1` (centres undefined), the cell number change is -0.368%. The AC50 under setting [2] is 0.517 µM [rising, single point]. The AC50 under setting [1] was 2.06 µM [falling, partial curve].
As to `Nc1ccccc1SC1CC(=O)N(c2ccc(Cl)c(Cl)c2)C1=O` (centres undefined), the cell number change was -54.4%. Also, the AC50 under setting [2] was 29.1 µM [falling, single point]. Further, the AC50 under setting [1] is 18.4 µM [falling, single point].
For the compound `CSc1ccc(-c2cccc([N+](=O)[O-])c2)nn1`, the cell number change is 38.5%. Also, the half-maximal activity concentration (AC50) under setting [2] was 29.1 µM [rising, single point]. In addition, under setting [1], the AC50 was 29.1 µM [rising, single point].
For the compound `C/C(=N/NS(=O)(=O)c1ccc(C)cc1C)c1ccc2c(c1)OCO2`, the cell number change was -11.9%. Besides, the AC50 under setting [1] is 29.1 µM [rising, single point].
Take `COc1cccc(NC(=S)N(CCN(C)C)Cc2cccs2)c1`: the half-maximal activity concentration (AC50) under setting [2] is 0.00411 µM [rising, full curve, poor fit].
For `O=C(O)CCc1ccccc1OC(=O)c1ccccc1`, the cell number change is -17.4%. In addition, the concentration at half-maximal activity (AC50) under setting [1] is 3.66 µM [rising, single point].
As to `CCCn1nnnc1SCC(=O)c1ccc(NC(C)=O)cc1`, the cell number change turned out to be 47.4%. The AC50 under setting [2] was 6.51 µM [rising, partial curve]. The half-maximal activity concentration (AC50) under setting [1] was 14.6 µM [rising, partial curve].
As for `CC(=O)Nc1ccc(OS(=O)(=O)c2cc(Cl)ccc2C)cc1`, the cell number change worked out at 16.9%.
Turning to `COc1cccc(NC(=O)C2C3C=CC(O3)C2C(=O)NCc2cccnc2)c1` (centres undefined), the cell number change came to 4.64%. Moreover, the AC50 under setting [1] is 29.1 µM [rising, single point].
Consider `COc1ccccc1C(=O)NNC(=S)NC(=O)c1cccs1`, for which the cell number change was determined as 29.7%. In addition, the concentration at half-maximal activity (AC50) under setting [1] is 20.6 µM [rising, single point].
As for `CN(Cc1nc(-c2ccncc2)no1)S(=O)(=O)c1ccc(Br)cc1`, the half-maximal activity concentration (AC50) under setting [1] was 1.03 µM [rising, full curve].
In the case of `CC(NC(=O)c1c(O)c2ccccc2n(C)c1=O)c1ccccc1` (centres undefined), the cell number change was -12.3%. Further, the AC50 under setting [1] is 1.03 µM [rising, full curve].
Consider `COc1ccc(N(C(C)=O)S(=O)(=O)c2cc(OC)ccc2OC)cc1`, for which the cell number change was -7.5%. The AC50 under setting [1] was 29.1 µM [rising, single point].
